Source: PubChem BioAssay AID1259272 (Sanger Institute, 2017)

- Aim: 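Kinome-wide siRNA search for genes whose silencing boosts targeted drug effects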 (primary screen)
- Cell system: SW1116 human colorectal cancer cells
- Knock-down reagent: siRNA pool against human genes
- Conditions: anchor drugs BYL719 (1 µM), cetuximab (5 µg/ml) or trametinib (10 nM), or DMSO vehicle; exposure length not given
- Detection: 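Replicate-averaged viability versus control-pool wells, with a robust z-score for siRNA alone and a per-drug synergy score (BYL719, cetuximab, trametinib)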
- Direction: viability z-score, no drug: higher = more cells remaining; strongly negative means essential gene; viability, no drug: higher = more viable cells; synergy score with BYL719 and synergy score with cetuximab and synergy score with trametinib: higher = stronger synthetic-lethal synergy with the drug
- Hit rule: 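a robust z-score under -3 with siRNA and no drug marks the gene essential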
- Meaning of the calls: active = essential (knock-down alone); inactive = no change
In all, the deposit lists 794 reagents; below is a part drawn at random. Over the whole deposit, 7 (0.88%) were called active. 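Essential calls reflect knock-down without drug only, not synergy with drugs; drug exposure length not given.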 Unmarked entries are inactive. No viability above 1 is reported: the scale is capped. Reagent sequences are not shown. The record does not give: the amount of reagent, the time to read-out.

gene	viability z-score, no drug	viability, no drug (fraction of control)	synergy score with BYL719	synergy score with cetuximab	synergy score with trametinib
PIK3R2	0.842	1	-0.0788	-0.0757	0.0983
AGK	-0.843	0.821	-0.0682	-0.000635	0.109
AURKC	-0.228	0.886	-0.096	-0.0257	0.113
NTN4	-1.12	0.791	-0.0446	0.0205	0.0733
MAPK10	0.842	1	-0.0259	-0.0265	0.159
NR4A2	-0.734	0.832	-0.00207	0.0792	0.109
MAP3K12	0.842	1	0.0687	0.00908	0.147
IRAK2	0.842	1	-0.0788	-0.0757	0.135
ALK	0.286	0.941	0.13	0.175	-0.0112
N4BP2	-0.353	0.873	-0.173	-0.0233	0.0332
RFK	-1.72	0.727	-0.168	-0.291	-0.0663
PTGS1	0.393	0.952	0.00457	0.0681	0.245

Just “synergy score with BYL719”, for 3 of the entries above:
MAP3K12 = 0.0687
IRAK2 = -0.0788
ALK = 0.13

Further records:
gene	viability z-score, no drug	viability, no drug (fraction of control)	synergy score with BYL719	synergy score with cetuximab	synergy score with trametinib
GK2	0.842	1	-0.0131	0.00209	-0.075
WNK3	0.338	0.946	-0.0144	0.0812	0.0282
PLK4	-0.383	0.87	-0.033	0.172	0.108
KALRN	0.842	1	0.0612	0.0795	0.0733
CMPK1	0.842	1	0.0999	0.139	0.151
GALK1	-0.459	0.861	0.131	-0.00572	0.011
ACVR1C	0.842	1	-0.0788	-0.0757	-0.0385
TYK2	-1.37	0.764	-0.142	-0.0518	0.102
CLK1	0.665	0.981	-0.0411	-0.0394	-0.0186
ULK4	-1.3	0.772	-0.122	0.0342	0.177
TPD52L3	0.194	0.931	-0.0709	-0.0527	-0.0735
STK17B	0.842	1	0.000685	0.106	0.127
GSK3A	-1.26	0.777	-0.0697	-0.0807	0.0764
TSKS	0.842	1	-0.0779	-0.0349	-0.0303
PDK1	-1.52	0.748	-0.228	-0.153	-0.0214
PRKAG3	-2.09	0.687	-0.0292	0.0162	0.0384
ADCK2	-0.144	0.895	0.068	-0.0177	0.0753
HUS1	0.842	1	-0.0788	-0.0757	0.103
TGFBR3	0.842	1	-0.0788	0.0174	0.0101
MATK	0.842	1	0.0815	0.145	0.171
PKM	0.842	1	0.0764	-0.0221	0.0818
PRKAB1	-1.7	0.729	-0.15	-0.202	0.0957
